Measured values as given in the supplement of paper PMC10849652.
Some of the results follow.

The chains behind the UniProt entries cited, without tags or fusion partners. Where a name states a change or a piece, a line headed by the entry shows the natural chain unless it says otherwise.
UniProt O60547: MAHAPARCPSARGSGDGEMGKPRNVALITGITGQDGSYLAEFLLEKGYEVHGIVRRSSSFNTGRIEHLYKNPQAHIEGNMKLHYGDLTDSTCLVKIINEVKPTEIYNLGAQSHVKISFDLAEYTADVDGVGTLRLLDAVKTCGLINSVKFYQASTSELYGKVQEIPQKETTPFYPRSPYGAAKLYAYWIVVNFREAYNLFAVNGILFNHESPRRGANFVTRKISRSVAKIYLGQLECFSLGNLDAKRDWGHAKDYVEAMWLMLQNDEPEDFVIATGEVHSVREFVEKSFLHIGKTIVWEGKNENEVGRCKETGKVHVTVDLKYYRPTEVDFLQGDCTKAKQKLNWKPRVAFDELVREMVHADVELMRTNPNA
UniProt P62873, whole entry, looked up: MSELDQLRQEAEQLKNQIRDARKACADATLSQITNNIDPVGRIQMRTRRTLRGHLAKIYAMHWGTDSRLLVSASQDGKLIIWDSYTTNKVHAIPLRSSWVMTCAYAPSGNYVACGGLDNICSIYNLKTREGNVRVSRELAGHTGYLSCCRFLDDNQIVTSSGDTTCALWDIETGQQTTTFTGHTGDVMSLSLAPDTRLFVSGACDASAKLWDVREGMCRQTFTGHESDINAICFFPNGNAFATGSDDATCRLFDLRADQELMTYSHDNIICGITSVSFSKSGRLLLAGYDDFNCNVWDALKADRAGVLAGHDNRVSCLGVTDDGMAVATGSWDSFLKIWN
UniProt Q14691: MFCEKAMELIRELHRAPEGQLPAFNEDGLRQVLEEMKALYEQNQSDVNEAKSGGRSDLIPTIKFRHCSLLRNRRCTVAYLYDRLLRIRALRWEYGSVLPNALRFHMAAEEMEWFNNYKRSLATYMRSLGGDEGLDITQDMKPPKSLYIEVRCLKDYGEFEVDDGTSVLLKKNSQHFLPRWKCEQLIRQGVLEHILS
UniProt P13224: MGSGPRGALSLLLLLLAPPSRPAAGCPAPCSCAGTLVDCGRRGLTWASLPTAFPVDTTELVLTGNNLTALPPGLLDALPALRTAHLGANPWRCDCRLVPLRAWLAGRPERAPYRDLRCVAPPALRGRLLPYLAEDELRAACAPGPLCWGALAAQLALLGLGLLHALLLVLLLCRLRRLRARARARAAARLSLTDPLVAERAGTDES
UniProt P60983, whole entry, looked up: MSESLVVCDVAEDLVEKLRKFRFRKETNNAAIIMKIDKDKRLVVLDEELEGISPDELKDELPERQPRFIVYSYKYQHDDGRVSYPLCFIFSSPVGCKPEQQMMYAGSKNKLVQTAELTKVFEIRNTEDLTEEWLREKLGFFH
UniProt Q4V328: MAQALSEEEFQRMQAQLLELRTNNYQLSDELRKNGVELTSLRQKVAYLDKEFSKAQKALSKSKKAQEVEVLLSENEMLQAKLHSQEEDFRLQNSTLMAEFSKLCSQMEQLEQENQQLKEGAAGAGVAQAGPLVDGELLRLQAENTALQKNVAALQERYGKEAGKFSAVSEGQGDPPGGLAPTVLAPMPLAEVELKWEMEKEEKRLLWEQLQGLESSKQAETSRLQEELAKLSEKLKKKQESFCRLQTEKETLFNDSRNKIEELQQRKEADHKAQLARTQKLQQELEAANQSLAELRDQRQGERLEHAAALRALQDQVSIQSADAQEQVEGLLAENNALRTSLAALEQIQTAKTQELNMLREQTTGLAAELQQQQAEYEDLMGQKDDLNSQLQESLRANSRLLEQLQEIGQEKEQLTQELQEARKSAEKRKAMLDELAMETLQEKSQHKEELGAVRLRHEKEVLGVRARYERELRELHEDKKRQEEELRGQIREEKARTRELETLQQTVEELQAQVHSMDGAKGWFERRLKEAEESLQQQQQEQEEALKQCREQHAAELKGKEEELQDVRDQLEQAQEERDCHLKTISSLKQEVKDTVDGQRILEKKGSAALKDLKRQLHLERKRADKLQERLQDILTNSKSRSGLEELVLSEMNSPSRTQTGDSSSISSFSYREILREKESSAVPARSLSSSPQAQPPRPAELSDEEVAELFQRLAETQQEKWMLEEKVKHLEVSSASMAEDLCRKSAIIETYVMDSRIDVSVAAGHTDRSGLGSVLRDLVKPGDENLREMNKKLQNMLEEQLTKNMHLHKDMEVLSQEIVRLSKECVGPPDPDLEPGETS
UniProt P00505: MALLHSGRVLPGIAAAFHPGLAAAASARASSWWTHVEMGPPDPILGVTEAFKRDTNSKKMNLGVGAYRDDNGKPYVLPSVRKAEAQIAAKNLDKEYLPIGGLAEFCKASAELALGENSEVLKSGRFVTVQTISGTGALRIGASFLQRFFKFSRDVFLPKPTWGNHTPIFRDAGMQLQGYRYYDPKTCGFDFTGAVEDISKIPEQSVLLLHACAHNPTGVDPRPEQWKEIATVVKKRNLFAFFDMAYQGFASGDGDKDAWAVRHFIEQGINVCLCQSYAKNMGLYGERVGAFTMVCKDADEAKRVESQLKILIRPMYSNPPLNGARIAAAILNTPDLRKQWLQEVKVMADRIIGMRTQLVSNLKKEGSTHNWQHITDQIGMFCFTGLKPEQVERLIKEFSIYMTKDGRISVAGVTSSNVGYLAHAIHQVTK
UniProt B7ZAQ6: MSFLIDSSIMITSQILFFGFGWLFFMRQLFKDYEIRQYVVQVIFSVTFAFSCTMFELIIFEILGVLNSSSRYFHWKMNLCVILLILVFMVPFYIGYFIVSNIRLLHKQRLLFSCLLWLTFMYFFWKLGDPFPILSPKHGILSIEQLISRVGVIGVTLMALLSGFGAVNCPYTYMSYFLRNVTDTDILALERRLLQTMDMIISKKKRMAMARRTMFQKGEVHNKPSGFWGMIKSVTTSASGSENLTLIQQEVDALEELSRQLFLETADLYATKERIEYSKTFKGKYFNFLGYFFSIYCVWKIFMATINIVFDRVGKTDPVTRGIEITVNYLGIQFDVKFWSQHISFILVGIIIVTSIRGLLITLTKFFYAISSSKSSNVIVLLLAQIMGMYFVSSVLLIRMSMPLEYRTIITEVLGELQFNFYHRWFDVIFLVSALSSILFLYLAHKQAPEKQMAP
UniProt Q3T8J9: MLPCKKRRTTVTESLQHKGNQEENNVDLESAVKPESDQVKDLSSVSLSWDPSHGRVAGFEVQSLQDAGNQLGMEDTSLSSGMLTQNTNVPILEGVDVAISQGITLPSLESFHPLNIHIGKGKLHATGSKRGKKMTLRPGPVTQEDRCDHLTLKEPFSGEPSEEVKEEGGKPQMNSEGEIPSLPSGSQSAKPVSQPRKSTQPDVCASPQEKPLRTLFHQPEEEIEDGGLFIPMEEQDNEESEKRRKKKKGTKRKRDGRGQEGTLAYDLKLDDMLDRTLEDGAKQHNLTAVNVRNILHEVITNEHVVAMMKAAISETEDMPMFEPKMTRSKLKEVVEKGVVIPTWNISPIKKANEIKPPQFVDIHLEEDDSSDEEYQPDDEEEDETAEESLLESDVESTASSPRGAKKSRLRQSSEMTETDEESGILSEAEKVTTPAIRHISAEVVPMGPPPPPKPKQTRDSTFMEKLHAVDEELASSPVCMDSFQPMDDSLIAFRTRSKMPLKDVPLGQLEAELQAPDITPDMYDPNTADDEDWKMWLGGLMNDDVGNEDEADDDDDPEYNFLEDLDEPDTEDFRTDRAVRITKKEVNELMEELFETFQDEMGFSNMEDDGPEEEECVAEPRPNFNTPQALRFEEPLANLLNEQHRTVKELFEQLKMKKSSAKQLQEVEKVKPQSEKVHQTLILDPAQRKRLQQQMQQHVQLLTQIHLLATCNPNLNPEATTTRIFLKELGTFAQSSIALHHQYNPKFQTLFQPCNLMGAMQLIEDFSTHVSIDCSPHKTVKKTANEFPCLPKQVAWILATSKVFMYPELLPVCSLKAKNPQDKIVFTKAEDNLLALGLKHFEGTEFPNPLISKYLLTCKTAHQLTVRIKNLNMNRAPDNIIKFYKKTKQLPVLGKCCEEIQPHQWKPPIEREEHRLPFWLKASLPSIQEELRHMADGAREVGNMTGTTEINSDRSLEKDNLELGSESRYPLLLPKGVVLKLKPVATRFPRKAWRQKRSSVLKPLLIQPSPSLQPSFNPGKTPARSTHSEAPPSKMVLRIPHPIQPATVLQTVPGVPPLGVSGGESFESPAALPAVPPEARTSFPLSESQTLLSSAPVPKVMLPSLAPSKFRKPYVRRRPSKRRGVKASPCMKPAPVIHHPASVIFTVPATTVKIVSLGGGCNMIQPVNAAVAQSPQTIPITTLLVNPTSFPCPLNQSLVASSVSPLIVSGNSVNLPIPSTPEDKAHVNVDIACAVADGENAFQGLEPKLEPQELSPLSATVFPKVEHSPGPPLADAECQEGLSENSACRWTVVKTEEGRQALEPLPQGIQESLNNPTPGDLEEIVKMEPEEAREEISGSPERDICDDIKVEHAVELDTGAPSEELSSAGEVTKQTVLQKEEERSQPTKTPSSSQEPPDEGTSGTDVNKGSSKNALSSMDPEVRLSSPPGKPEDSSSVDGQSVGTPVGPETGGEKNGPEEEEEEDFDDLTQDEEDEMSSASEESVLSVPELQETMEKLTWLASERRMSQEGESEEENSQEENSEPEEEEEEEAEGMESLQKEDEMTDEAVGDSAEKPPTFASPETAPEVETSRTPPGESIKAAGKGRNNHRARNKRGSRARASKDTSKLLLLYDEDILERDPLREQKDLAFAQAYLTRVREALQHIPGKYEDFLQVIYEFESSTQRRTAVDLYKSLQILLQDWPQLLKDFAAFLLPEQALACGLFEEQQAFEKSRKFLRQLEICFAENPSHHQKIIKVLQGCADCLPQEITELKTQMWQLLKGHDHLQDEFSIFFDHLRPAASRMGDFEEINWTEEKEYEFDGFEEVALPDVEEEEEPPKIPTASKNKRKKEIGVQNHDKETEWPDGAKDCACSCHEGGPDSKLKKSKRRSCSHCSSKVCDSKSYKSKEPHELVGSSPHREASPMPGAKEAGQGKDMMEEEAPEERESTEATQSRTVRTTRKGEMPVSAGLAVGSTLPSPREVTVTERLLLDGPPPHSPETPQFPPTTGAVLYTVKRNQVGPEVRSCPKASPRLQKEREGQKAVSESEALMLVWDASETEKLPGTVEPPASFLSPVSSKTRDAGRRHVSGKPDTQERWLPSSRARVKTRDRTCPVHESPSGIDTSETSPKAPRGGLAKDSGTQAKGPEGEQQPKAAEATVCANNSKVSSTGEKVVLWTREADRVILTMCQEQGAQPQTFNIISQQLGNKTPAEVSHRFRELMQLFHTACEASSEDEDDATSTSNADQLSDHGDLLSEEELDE
UniProt Q92990: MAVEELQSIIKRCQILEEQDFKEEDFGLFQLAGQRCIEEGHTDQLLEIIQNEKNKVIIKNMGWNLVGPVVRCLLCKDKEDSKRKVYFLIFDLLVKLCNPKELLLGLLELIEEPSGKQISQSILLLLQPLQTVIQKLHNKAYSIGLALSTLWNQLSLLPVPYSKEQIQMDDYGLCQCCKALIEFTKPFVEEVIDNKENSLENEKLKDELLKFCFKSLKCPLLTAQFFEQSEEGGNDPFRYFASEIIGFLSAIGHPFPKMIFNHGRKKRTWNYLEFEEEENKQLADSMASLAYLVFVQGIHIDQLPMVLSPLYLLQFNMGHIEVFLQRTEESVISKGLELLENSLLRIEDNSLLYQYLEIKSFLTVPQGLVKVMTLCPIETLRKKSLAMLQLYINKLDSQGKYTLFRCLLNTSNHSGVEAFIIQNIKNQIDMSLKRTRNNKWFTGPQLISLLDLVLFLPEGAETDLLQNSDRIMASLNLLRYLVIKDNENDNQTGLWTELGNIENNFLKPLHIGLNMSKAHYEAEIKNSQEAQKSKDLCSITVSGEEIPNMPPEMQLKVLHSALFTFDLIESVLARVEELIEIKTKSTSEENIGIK
UniProt O75496: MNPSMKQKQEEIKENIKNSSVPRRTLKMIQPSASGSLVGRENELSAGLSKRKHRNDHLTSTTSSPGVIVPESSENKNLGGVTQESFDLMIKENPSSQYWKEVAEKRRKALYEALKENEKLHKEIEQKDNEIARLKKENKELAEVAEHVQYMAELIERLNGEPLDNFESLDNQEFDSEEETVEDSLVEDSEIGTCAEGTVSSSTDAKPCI
UniProt Q9HAV7: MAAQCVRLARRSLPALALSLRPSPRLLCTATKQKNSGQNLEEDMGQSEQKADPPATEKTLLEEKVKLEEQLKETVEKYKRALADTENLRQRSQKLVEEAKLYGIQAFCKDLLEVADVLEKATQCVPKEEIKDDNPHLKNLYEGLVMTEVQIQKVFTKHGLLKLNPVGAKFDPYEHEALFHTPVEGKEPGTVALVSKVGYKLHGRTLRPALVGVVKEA
UniProt Q9NS18: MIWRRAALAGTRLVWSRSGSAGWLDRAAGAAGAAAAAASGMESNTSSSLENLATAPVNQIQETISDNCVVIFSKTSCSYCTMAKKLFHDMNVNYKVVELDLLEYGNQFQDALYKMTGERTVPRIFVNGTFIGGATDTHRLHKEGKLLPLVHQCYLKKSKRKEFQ

How the values were obtained:
Assay in all cases: log2 fold change, soluble protein after heating vs DMSO (PISA); higher = thermal stabilisation; K562 cells, 10 uM, 30 min; active = over 0.2 and 3.5 SD of the protein, either way, in both replicates (recomputed)
[1] = compound: CS(=O)(=O)c1ccc(-c2cnc(N)c(C(=O)Nc3ccccc3)n2)cc1
In short: (§1)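 K562 cells at 2×10^6 cells/mL were given 10 μM compound for 30 min. Aliquots then went through 3 min of heating across 48°C-58°C, were pooled, and were extracted in PBS with 0.5% NP-40 at 4°C, and the supernatant after 21,000xg for 90 min was quantified by TMTpro 16plex LC-MS/MS with channel sums equalised. Thermal stability relative to control samples, from duplicates, is given as log2 fold change.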

crizotinib = compound: C[C@@H](Oc1cc(-c2cnn(C3CCNCC3)c2)cnc1N)c1c(Cl)ccc(F)c1Cl [crizotinib]
In short: as §1

[2] = compound: C[C@@H]1COCCN1C2=NC(=NC(=C2)C3(CC3)S(=O)(=O)C)C4=C5C=CNC5=CC=C4
In short: as §1

[3] = compound: C[C@H](C1=CC=C(C=C1)C(=O)NC2=C3C=CNC3=NC=C2)N
In short: as §1

duvelisib = compound: C[C@H](Nc1ncnc2nc[nH]c12)c1cc2cccc(Cl)c2c(=O)n1-c1ccccc1 [duvelisib]
In short: as §1

gandotinib = compound: Cc1cc(Nc2cc(CN3CCOCC3)c3nc(C)c(Cc4ccc(Cl)cc4F)n3n2)n[nH]1 [gandotinib]
In short: as §1

tozasertib = compound: Cc1cc(Nc2cc(N3CCN(C)CC3)nc(Sc3ccc(NC(=O)C4CC4)cc3)n2)n[nH]1 [tozasertib]
In short: as §1

[4] = compound: Cc1cc(SCc2sc(-c3ccc(C(F)(F)F)cc3)nc2C)ccc1OCC(=O)O
In short: as §1

doramapimod = compound: Cc1ccc(-n2nc(C(C)(C)C)cc2NC(=O)Nc2ccc(OCCN3CCOCC3)c3ccccc23)cc1 [doramapimod]
In short: as §1

ispinesib = compound: Cc1ccc(C(=O)N(CCCN)[C@@H](c2nc3cc(Cl)ccc3c(=O)n2Cc2ccccc2)C(C)C)cc1 [ispinesib]
In short: as §1

bafetinib = compound: Cc1ccc(NC(=O)c2ccc(CN3CC[C@H](N(C)C)C3)c(C(F)(F)F)c2)cc1Nc1nccc(-c2cncnc2)n1 [bafetinib]
In short: as §1

[5] = compound: Cc1cccc(CC(=O)N2CCc3c2ccc(-c2cn(C)c4ncnc(N)c24)c3F)n1
In short: as §1

nilotinib = compound: Cc1cn(-c2cc(NC(=O)c3ccc(C)c(Nc4nccc(-c5cccnc5)n4)c3)cc(C(F)(F)F)c2)cn1 [nilotinib]
In short: as §1

[6] = compound: Cc1nc(Nc2n[nH]c3c2CN(C(=O)N[C@H](CN(C)C)c2ccccc2)C3(C)C)c2sccc2n1
In short: as §1

dasatinib = compound: Cc1nc(Nc2ncc(C(=O)Nc3c(C)cccc3Cl)s2)cc(N2CCN(CCO)CC2)n1 [dasatinib]
In short: as §1

[7] = compound: Cc1ncc(-c2ccnc(Nc3ccc(S(C)(=O)=O)cc3)n2)n1C(C)C
In short: as §1

[8] = compound: Cn1cc(-c2ccc3c(c2)CCN3C(=O)Cc2cccc(C(F)(F)F)c2)c2c(N)ncnc21
In short: as §1

[9] = compound: Cn1cc(-c2ccc3nnc(C(F)(F)c4ccc5ncccc5c4)n3n2)cn1
In short: as §1

tipifarnib = compound: Cn1cncc1[C@@](N)(c1ccc(Cl)cc1)c1ccc2c(c1)c(-c1cccc(Cl)c1)cc(=O)n2C [tipifarnib]
In short: as §1

mubritinib = compound: FC(F)(F)c1ccc(/C=C/c2nc(COc3ccc(CCCCn4ccnn4)cc3)co2)cc1 [mubritinib]
In short: as §1

Measured: log2 fold change

GMDS (UniProt O60547)
inactive: [1] 0.023 | crizotinib 0.017 | [2] 0.093 | [3] -0.022 | duvelisib 0.037 | gandotinib -0.031 | tozasertib -0.022 | [4] -0.024 | doramapimod -0.008 | ispinesib -0.006 | bafetinib -0.043 | [5] -0.025 | nilotinib -0.014 | [6] 0.032 | dasatinib 0.021 | [7] -0.013 | [8] 0.056 | [9] 0.012 | tipifarnib -0.019 | mubritinib 0.018

GNB1 (UniProt P62873)
inactive: [1] 0.007 | crizotinib 0.099 | [2] 0.013 | [3] -0.124 | duvelisib 0.095 | gandotinib -0.068 | tozasertib 0.016 | [4] 0.113 | doramapimod -0.004 | ispinesib 0.112 | bafetinib 0.136 | [5] 0.069 | nilotinib 0.081 | [6] 0.01 | dasatinib -0.025 | [7] -0.008 | [8] 0.033 | [9] 0.003 | tipifarnib -0.064 | mubritinib -0.018

GINS1 (UniProt Q14691)
inactive: [1] -0.004 | crizotinib -0.033 | [2] -0.047 | [3] 0.005 | duvelisib 0.015 | gandotinib 0.027 | tozasertib 0.009 | [4] -0.037 | doramapimod 0.04 | ispinesib 0.05 | bafetinib 0.012 | [5] -0.007 | nilotinib 0.031 | [6] -0.094 | dasatinib -0.167 | [7] -0.068 | [8] 0.06 | [9] -0.114 | tipifarnib -0.042 | mubritinib 0.113

GNPTAB (UniProt Q3T906)
inactive: [1] -0.051 | crizotinib 0.042 | [2] -0.149 | [3] 0.133 | duvelisib 0.042 | gandotinib 0.047 | tozasertib -0.034 | [4] -0.062 | doramapimod 0.023 | ispinesib 0.037 | bafetinib -0.064 | [5] -0.115 | nilotinib 0.047 | [6] -0.082 | dasatinib 0.006 | [7] -0.001 | [8] -0.051 | [9] 0.012 | tipifarnib 0.108 | mubritinib 0.108

GP1BB isoform 2 (UniProt P13224)
inactive: [1] 0.03 | crizotinib -0.116 | [2] -0.049 | [3] 0.027 | duvelisib 0.021 | gandotinib -0.021 | tozasertib 0.006 | [4] 0.023 | doramapimod 0.003 | bafetinib -0.044 | [5] 0.023 | nilotinib 0.045 | [6] 0.013 | dasatinib -0.034 | [7] -0.029 | [8] -0.035 | tipifarnib 0.059 | mubritinib 0.045

GMFB (UniProt P60983)
inactive: [1] -0.013 | crizotinib 0.056 | [2] 0.083 | [3] -0.065 | duvelisib 0.024 | gandotinib 0.067 | tozasertib -0.008 | [4] -0.013 | doramapimod -0.044 | ispinesib 0.107 | bafetinib -0.042 | [5] -0.016 | nilotinib 0.018 | [6] -0.001 | dasatinib 0.038 | [7] 0.014 | [8] 0.018 | [9] 0.007 | tipifarnib 0.016 | mubritinib 0.042

GRIPAP1 (UniProt Q4V328)
inactive: [1] -0.043 | crizotinib 0.033 | [2] -0.035 | [3] 0.01 | duvelisib -0.029 | gandotinib -0.069 | tozasertib 0.17 | [4] 0.013 | doramapimod 0.038 | ispinesib -0.03 | bafetinib -0.04 | [5] -0.035 | nilotinib 0.136 | [6] -0.059 | dasatinib 0.046 | [7] 0.089 | [8] -0.128 | [9] -0.026 | tipifarnib 0.002 | mubritinib 0.037

GOLIM4 (UniProt F8W785)
inactive: [1] 0.141 | crizotinib -0.166 | [2] -0.095 | [3] 0.117 | duvelisib -0.007 | gandotinib 0.115 | tozasertib 0.104 | [4] -0.063 | doramapimod -0.014 | bafetinib -0.082 | [5] 0.004 | nilotinib 0.074 | [6] -0.101 | dasatinib 0.092 | [7] 0.042 | [8] -0.016

GOT2 (UniProt P00505)
inactive: [1] 0.018 | crizotinib 0.056 | [2] -0.011 | [3] -0.102 | duvelisib 0.004 | gandotinib 0.046 | tozasertib -0.004 | [4] -0.02 | doramapimod -0.048 | ispinesib 0.013 | bafetinib -0.034 | [5] -0.034 | nilotinib 0.009 | [6] 0.006 | dasatinib 0.022 | [7] -0.02 | [8] 0.018 | [9] 0.02 | tipifarnib 0.033 | mubritinib 0.005

Quoted at random: 2 records from the list
GMFB (UniProt P60983)
inactive: [1] -0.013 | crizotinib 0.056 | [2] 0.083 | [3] -0.065 | duvelisib 0.024 | gandotinib 0.067 | tozasertib -0.008 | [4] -0.013 | doramapimod -0.044 | ispinesib 0.107 | bafetinib -0.042 | [5] -0.016 | nilotinib 0.018 | [6] -0.001 | dasatinib 0.038 | [7] 0.014 | [8] 0.018 | [9] 0.007 | tipifarnib 0.016 | mubritinib 0.042

GOT2 (UniProt P00505)
inactive: [1] 0.018 | crizotinib 0.056 | [2] -0.011 | [3] -0.102 | duvelisib 0.004 | gandotinib 0.046 | tozasertib -0.004 | [4] -0.02 | doramapimod -0.048 | ispinesib 0.013 | bafetinib -0.034 | [5] -0.034 | nilotinib 0.009 | [6] 0.006 | dasatinib 0.022 | [7] -0.02 | [8] 0.018 | [9] 0.02 | tipifarnib 0.033 | mubritinib 0.005

Remaining list, next part

GPR89A (UniProt B7ZAQ6)
inactive: [1] 0.044 | crizotinib 0.023 | [2] 0.028 | [3] -0.046 | duvelisib -0.018 | gandotinib 0.027 | tozasertib -0.022 | [4] -0.006 | doramapimod 0.003 | ispinesib -0.149 | bafetinib -0.047 | [5] -0.092 | nilotinib -0.007 | [6] 0.036 | dasatinib -0.013 | [7] 0 | [8] 0.044 | [9] 0.04 | tipifarnib -0.041 | mubritinib 0

GON4L (UniProt Q3T8J9)
inactive: [1] -0.021 | crizotinib 0.068 | [2] 0.042 | [3] 0.047 | duvelisib 0.056 | tozasertib -0.057 | [4] -0.189 | doramapimod -0.023 | bafetinib -0.063 | nilotinib 0.227 | [6] 0.061 | dasatinib -0.01 | [7] 0.033 | [8] 0.053 | tipifarnib -0.01 | mubritinib 0.077

GLMN (UniProt Q92990)
inactive: [1] 0.038 | crizotinib -0.018 | [2] 0.027 | [3] -0.009 | duvelisib 0.001 | gandotinib 0.007 | tozasertib -0.011 | [4] -0.021 | doramapimod -0.007 | ispinesib 0.014 | bafetinib -0.022 | [5] -0.007 | nilotinib -0.033 | [6] -0.005 | dasatinib -0.03 | [7] -0.006 | [8] 0.053 | [9] 0.023 | tipifarnib -0.043 | mubritinib 0.084

GMNN (UniProt O75496)
inactive: [1] -0.013 | crizotinib 0.021 | [2] -0.015 | [3] -0.018 | duvelisib 0.019 | gandotinib -0.04 | tozasertib -0.013 | [4] -0.041 | doramapimod -0.009 | ispinesib 0.002 | bafetinib -0.01 | [5] -0.079 | nilotinib 0.029 | [6] 0 | dasatinib 0.038 | [7] 0.06 | [8] 0.009 | [9] -0.01 | tipifarnib 0.023 | mubritinib 0.033

GMPPA (UniProt Q96IJ6)
inactive: [1] 0.017 | crizotinib 0.02 | [2] 0.092 | [3] -0.039 | duvelisib 0.076 | gandotinib -0.046 | tozasertib -0.034 | [4] 0.039 | doramapimod -0.039 | ispinesib 0.05 | bafetinib -0.028 | [5] -0.024 | nilotinib -0.034 | [6] -0.001 | dasatinib -0.059 | [7] 0.034 | [8] 0.039 | [9] 0.042 | tipifarnib -0.022 | mubritinib 0.005

GRPEL1 (UniProt Q9HAV7)
inactive: [1] 0.007 | crizotinib 0.063 | [2] 0.069 | [3] -0.052 | duvelisib 0.005 | gandotinib -0.009 | tozasertib 0.001 | [4] -0.03 | doramapimod -0.024 | ispinesib 0.115 | bafetinib -0.029 | [5] 0.002 | nilotinib -0.001 | [6] 0.016 | dasatinib 0.011 | [7] -0.01 | [8] 0.023 | [9] 0.057 | tipifarnib -0.012 | mubritinib -0.021

GLRX2 isoform 2 (UniProt Q9NS18)
inactive: [1] -0.022 | crizotinib 0.035 | [2] -0.024 | [3] -0.115 | duvelisib 0.031 | gandotinib -0.088 | tozasertib 0.026 | [4] 0.079 | doramapimod -0.077 | ispinesib 0.081 | bafetinib -0.026 | [5] -0.015 | nilotinib 0.171 | [6] 0.046 | dasatinib 0.045 | [7] 0.061 | [8] -0.002 | [9] -0.044 | tipifarnib 0.032 | mubritinib 0.091
